The assay addresses hSCGN ΔEF1 (a.a.: Δ1-52) overexpressed in HeLa cells (pcDNA3.1) (human) (UniProt O76038). In words: non-reducing SDS-PAGE and Western blot of cell lysates; HeLa cells overexpressing hSCGN, treated with H2O2 (with or without 2 μM ionomycin); anti-SCGN antibody.

Results are given in words; binding and its absence hold for the method and conditions named. Some binding calls cover weakened binding; strength is not graded here.

B1: purified hSCGN ΔEF1 (deletion of 1-52 a.a.) (domain or fragment, human, UniProt O76038 53-276, looked up)
chain: TVMKANLHKVKQQFMTTQDASKDGRIRMKELAGMFLSEDENFLLLFRRENPLDSSVEFMQIWRKYDADSSGFISAAELRNFLRDLFLHHKKAISEAKLEEYTGTMMKIFDRNKDGRLDLNDLARILALQENFLLQFKMDACSTEERKRDFEKIFAYYDVSKTGALEGPEVDGFVKDMMELVQPSISGVDLDKFREILLRHCDVNKDGKIQKSELALCLGLKINP
notes: human secretagogin (SCGN) without residues 1-52 (EF1); The methods describe ΔEF1 only as a pcDNA3.1 construct; also called ΔEF1 protein; recombinant ΔEF1; source: purified recombinant protein
Regarding B1, the binding result was “binds”.

The values are drawn from PMC5539292, “Calcium Ion Induced Structural Changes Promote Dimerization of Secretagogin, Which Is Required for Its Insulin Secretory Function” (Scientific Reports, 2017).
